PMC5809941
Results are given in words; binding and its absence hold for the method and conditions named. Some binding calls cover weakened binding; strength is not graded here. Tags and fused reporters may be left off the sequences shown.

Chains of the proteins cited; added tags and fusions are not shown.
UniProt P98170: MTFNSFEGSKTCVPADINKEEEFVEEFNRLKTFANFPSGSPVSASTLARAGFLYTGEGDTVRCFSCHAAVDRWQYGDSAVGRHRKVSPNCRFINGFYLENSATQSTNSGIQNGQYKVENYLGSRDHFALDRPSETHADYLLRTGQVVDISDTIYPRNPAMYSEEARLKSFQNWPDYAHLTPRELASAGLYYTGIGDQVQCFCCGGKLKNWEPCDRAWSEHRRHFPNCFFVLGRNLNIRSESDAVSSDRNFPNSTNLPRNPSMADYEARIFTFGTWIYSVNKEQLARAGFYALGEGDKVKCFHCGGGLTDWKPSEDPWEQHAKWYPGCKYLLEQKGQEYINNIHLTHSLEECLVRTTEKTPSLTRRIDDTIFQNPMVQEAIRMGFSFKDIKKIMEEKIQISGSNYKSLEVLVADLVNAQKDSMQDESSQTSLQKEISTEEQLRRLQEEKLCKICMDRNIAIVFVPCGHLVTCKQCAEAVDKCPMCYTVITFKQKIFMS
UniProt Q9Y6K9: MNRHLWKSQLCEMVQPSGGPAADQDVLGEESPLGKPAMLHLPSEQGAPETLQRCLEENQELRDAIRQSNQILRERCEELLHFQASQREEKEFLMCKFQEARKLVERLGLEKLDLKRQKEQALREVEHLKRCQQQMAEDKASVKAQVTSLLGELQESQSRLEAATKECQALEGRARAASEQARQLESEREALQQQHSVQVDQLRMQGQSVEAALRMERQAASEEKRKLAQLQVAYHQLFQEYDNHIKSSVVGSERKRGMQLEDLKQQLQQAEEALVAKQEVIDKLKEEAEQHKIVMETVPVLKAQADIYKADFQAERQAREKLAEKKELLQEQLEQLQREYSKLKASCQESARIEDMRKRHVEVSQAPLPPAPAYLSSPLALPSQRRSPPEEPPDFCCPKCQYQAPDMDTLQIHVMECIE
UniProt Q9P286: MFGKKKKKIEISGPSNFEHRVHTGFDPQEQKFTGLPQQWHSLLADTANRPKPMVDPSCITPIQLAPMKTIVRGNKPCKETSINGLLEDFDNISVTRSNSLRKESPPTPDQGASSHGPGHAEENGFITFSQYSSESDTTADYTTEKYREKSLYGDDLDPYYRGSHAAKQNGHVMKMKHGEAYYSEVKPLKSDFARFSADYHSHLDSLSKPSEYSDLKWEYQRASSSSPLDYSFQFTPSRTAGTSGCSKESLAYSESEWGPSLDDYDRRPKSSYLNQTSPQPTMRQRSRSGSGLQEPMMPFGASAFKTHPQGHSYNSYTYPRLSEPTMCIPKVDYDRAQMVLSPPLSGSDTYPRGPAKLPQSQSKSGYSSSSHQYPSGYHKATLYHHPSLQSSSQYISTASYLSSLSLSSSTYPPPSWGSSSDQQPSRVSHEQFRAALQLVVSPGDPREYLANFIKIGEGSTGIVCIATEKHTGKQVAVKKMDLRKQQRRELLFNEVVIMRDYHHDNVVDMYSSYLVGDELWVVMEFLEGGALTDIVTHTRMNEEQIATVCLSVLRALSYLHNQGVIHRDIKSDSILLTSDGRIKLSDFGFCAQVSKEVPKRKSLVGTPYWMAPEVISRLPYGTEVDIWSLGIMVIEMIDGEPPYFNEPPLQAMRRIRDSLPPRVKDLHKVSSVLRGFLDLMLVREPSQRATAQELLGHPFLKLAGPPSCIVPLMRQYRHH
UniProt P28074: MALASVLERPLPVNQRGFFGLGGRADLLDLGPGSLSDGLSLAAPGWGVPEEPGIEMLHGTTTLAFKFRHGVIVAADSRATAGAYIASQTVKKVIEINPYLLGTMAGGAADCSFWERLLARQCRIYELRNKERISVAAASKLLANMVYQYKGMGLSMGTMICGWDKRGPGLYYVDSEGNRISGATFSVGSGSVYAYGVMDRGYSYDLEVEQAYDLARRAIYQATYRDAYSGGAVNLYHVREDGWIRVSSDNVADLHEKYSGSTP
UniProt Q9NWF9: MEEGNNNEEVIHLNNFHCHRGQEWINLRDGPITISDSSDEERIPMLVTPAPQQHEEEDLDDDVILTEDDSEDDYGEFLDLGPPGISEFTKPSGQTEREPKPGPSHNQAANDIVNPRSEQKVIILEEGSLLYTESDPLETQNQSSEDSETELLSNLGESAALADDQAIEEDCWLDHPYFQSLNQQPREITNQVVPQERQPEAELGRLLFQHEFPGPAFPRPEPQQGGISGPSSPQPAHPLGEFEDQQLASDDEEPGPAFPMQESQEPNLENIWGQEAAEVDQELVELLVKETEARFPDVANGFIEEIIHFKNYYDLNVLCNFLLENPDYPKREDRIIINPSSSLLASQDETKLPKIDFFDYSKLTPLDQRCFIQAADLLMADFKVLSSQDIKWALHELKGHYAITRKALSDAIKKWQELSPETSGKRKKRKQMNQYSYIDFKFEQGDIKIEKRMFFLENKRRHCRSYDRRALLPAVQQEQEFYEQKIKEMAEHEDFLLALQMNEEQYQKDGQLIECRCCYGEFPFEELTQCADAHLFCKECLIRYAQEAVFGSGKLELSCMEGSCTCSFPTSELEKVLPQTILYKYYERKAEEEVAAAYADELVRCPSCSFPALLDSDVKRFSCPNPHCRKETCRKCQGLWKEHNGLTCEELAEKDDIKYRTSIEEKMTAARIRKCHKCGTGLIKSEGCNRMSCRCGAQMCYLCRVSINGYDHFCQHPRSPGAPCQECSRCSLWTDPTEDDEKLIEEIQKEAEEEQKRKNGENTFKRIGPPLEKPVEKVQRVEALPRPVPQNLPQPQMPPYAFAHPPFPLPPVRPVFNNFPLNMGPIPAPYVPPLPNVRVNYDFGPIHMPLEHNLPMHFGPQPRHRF

How the values were obtained:
Assay in all cases: wNAPPA (well nucleic acid programmable protein array)
BIRC4 (human) = BIRC4 (human) (UniProt P98170)
BIRC8 (human) = target: T1, BIRC8 (human) (UniProt Q96P09)
T1 sequence: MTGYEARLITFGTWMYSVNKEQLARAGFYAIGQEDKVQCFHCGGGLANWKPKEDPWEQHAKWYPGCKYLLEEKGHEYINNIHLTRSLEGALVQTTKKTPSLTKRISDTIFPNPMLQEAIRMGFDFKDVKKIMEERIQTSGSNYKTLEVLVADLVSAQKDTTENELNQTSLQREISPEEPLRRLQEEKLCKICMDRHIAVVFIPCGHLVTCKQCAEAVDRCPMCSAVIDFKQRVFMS

IKBKG (human) = IKBKG (human) (UniProt Q9Y6K9)
PAK7 (human) = PAK7 (human) (UniProt Q9P286)
PSMB5 (human) = PSMB5 (human) (UniProt P28074)
RNF216 (human) = RNF216 (human) (UniProt Q9NWF9)

binding (BIRC4 (human)): binds
binding (BIRC8 (human)): binds
binding (IKBKG (human)): binds
binding (PAK7 (human)): binds
binding (PSMB5 (human)): binds
binding (RNF216 (human)): binds
B1: PLEKHN1-HaloTag (protein, UniProt Q494U1 1-611)
chain: MGNSHCVPQAPRRLRASFSRKPSLKGNREDSARMSAGLPGPEAARSGDAAANKLFHYIPGTDILDLENQRENLEQPFLSVFKKGRRRVPVRNLGKVVHYAKVQLRFQHSQDVSDCYLELFPAHLYFQAHGSEGLTFQGLLPLTELSVCPLEGSREHAFQITGPLPAPLLVLCPSRAELDRWLYHLEKQTALLGGPRRCHSAPPQRRLTRLRTASGHEPGGSAVCASRVKLQHLPAQEQWDRLLVLYPTSLAIFSEELDGLCFKGELPLRAVHINLEEKEKQIRSFLIEGPLINTIRVVCASYEDYGHWLLCLRAVTHREGAPPLPGAESFPGSQVMGSGRGSLSSGGQTSWDSGCLAPPSTRTSHSLPESSVPSTVGCSSQHTPDQANSDRASIGRRRTELRRSGSSRSPGSKARAEGRGPVTPLHLDLTQLHRLSLESSPDAPDHTSETSHSPLYADPYTPPATSHRRVTDVRGLEEFLSAMQSARGPTPSSPLPSVPVSVPASDPRSCSSGPAGPYLLSKKGALQSRAAQRHRGSAKDGGPQPPDAPQLVSSAREGSPEPWLPLTDGRSPRRSRDPGYDHLWDETLSSSHQKCPQLGGPEASGGLVQWI
